The data set can be described thus: general procedure: solution-phase peptide synthesis; HATU with triethylamine or diisopropylethylamine. To be noted: for final HPLC purity: HPLC Protocol A at 45 °C.
[1] abbreviates: late stage modification step, TFA salt.

Regarding “1-(tert-butoxycarbonyl)-2-methyl-L-prolyl-N-{(1S,2R)-4-{(2S)-2-[(1R,2R)-3-{[(1 S)-1-benzyl-2-methoxy-2-oxoethyl]amino}-1-methoxy-2-methyl-3-oxopropyl]pyrrolidin-1-yl}-2-methoxy-1-[(1 S)-1-inethylpropyl]4-oxobutyl}-N-methyl-Lvalinamide”, the step yield (coupling step) is 74%.

For the substance “2-methyl-L-prolyl-N-[(3R,4S,5S)-1-{(2S)-2-[(1R,2R)-3-{[(1 S)-1-carboxy-2-phenylethyl]amino}-1-methoxy-2-methyl-3-oxopropyl]pyrrolidin-1-yl}-3-methoxy-5-methyl-1-oxoheptan-4-yl]-N-methyl-L-valinamide, trifluoroacetic acid salt”, under setting [1], the “final HPLC purity” value was “purity>98%” and the step yield is recorded as 89%.

Turning to “2-methyl-L-prolyl-N-{(1 S,2R)-4-{(2S)-2-[(1R,2R)-3-{[(1 S)-1-benzyl-2-methoxy-2-oxoethyl]amino}-1-methoxy-2-methyl-3-oxopropyl]pyrrolidin-1-yl}-2-methoxy-1-[(1 S)-1-methylpropyl]-4-oxobutyl}-N-methyl-L-valinamide, trifluoroacetic acid salt”, under setting [1], the “final HPLC purity” value is listed as “purity>91%” and the step yield worked out at 89%.

The substance “2-methylalanyl-N-[(3R,4S,5S)-3-methoxy-1-{(2S)-2-[(1R,2R)-1-methoxy-2-methyl-3-oxo-3-{[(1S)-2-phenyl-1-(1,3-thiazol-2-yl)ethyl]amino}propyl]pyrrolidin-1-yl}-5-methyl-1-oxoheptan-4-yl]-N-methyl-L-valinamide” came in with a step yield (late stage modification step) of 75%.

Under “coupling step”, “N-[(9H-fluoren-9-ylmethoxy)carbonyl]-2-methylalanyl-N-[(3R,4S,5S)-3-methoxy-1-{(2S)-2-[(1R,2R)-1-methoxy-2-methyl-3-oxo-3-{[(1S)-2-phenyl-1-(1,3-thiazol-2 yl)ethyl]amino}propyl]pyrrolidin-1-yl}-5-methyl-1-oxoheptan-4-yl]-N-methyl-L-valinamide” came in with a step yield of 74%.

Values taken from patent US12371507B2 (Beth Israel Deaconess Medical Center, priority 2018, dated 2025).
